Source: paper PMC6478927

Chains of the proteins cited; added tags and fusions are not shown.
UniProt Q8N5F7: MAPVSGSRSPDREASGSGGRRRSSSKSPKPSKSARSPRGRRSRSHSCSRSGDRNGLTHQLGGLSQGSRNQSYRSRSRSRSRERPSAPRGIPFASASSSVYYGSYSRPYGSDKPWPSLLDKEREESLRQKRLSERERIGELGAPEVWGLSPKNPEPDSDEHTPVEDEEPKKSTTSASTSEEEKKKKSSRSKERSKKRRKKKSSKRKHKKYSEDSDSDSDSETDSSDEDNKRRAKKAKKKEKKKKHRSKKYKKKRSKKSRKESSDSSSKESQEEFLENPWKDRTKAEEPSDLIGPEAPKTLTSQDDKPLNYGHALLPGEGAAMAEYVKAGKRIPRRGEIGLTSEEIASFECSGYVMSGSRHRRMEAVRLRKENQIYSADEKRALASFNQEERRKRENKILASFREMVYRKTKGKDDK

Molecular target: T1, DiGeorge critical region 8 (DGCR8) (human (endogenous in PANC-1)) (UniProt Q8WYQ5)
T1 sequence: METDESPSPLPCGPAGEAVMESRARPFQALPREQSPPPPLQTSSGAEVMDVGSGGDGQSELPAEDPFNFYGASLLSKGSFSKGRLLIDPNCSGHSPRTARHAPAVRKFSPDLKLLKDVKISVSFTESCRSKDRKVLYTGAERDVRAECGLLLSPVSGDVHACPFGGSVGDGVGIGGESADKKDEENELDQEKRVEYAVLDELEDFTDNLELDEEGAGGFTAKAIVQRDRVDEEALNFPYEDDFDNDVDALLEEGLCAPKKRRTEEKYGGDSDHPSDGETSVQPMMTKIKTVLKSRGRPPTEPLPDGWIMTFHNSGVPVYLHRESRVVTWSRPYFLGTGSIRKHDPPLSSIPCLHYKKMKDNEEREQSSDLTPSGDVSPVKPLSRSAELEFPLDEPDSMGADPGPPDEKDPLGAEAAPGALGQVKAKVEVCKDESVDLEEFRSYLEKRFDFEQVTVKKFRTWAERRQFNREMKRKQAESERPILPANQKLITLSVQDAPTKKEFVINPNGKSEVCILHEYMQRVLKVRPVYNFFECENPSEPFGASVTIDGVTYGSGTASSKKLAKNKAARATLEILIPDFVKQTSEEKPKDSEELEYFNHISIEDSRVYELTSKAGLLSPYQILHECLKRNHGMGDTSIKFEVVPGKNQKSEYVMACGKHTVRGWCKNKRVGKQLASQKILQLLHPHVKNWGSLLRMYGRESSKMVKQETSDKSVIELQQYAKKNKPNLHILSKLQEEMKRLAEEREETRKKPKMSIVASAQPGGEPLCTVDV
Assay: affinity purification with mass spectrometry; co-IP with anti-DGCR8 antibody, proteins identified by mass spectrometry, integrated with RNA pulldown data

NF-κB associated protein (NKAP) (from UniProt Q8N5F7 1-415)
binding: binds

Results are given in words; binding and its absence hold for the method and conditions named. In cells and extracts the contact can be indirect. Here binding means that the protein was enriched with, or labelled near, the bait; the list need not be complete.
